Results are given in words; binding and its absence hold for the method and conditions named. Some results given as binding are weak or reduced against the parent protein; the word gives no strength.
Target: AHA-1, C. elegans (orthologue of mammalian HIF-1beta/ARNT) (C. elegans) (UniProt O02219)
Experiment: native gel or EMSA; HIF-1 and/or AHA-1 synthesized in reticulocyte lysate (1-4 ul) incubated singly or together with 32P-labeled ftn-1 IDE DNA probe; 10 mM Tris-HCl pH 7.5, 4% glycerol, 1 mM MgCl2, 1 mM DTT, poly dI-dC, room temperature 30 min; 5% non-denaturing polyacrylamide gel; the two proteins are seen together only as a complex on the DNA probe

Protein sequences, listed by entry. Tags and fused reporters are not part of them.
UniProt O02219: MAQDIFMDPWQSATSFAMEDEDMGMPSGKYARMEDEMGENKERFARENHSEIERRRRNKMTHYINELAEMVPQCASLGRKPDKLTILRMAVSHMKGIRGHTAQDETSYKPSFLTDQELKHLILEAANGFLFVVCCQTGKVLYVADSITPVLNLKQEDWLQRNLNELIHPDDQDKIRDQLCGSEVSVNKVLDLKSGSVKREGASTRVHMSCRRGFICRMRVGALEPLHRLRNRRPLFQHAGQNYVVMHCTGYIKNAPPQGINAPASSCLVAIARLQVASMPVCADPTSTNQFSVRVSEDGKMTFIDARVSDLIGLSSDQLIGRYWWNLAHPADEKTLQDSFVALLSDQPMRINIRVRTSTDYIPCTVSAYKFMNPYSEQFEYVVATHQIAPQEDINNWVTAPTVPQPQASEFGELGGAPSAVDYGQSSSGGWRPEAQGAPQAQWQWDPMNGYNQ

binding: binds
B1: HIF-1 (hypoxia-inducible factor-1), C. elegans (protein, UniProt G5EGD2 1-719)
chain: MEDNRKRNMERRRETSRHAARDRRSKESDIFDDLKMCVPIVEEGTVTHLDRIALLRVAATICRLRKTAGNVLENNLDNEITNEVWTEDTIAECLDGFVMIVDSDSSILYVTESVAMYLGLTQTDLTGRALRDFLHPSDYDEFDKQSKMLHKPRGEDTDTTGINMVLRMKTVISPRGRCLNLKSALYKSVSFLVHSKVSTGGHVSFMQGITIPAGQGTTNANASAMTKYTESPMGAFTTRHTCDMRITFVSDKFNYILKSELKTLMGTSFYELVHPADMMIVSKSMKELFAKGHIRTPYYRLIAANDTLAWIQTEATTITHTTKGQKGQYVICVHYVLGIQGAEESLVVCTDSMPAGMQVDIKKEVDDTRDYIGRQPEIVECVDFTPLIEPEDPFDTVIEPVVGGEEPVKQADMGARKNSYDDVLQWLFRDQPSSPPPARYRSADRFRTTEPSNFGSALASPDFMDSSSRTSRPKTSYGRRAQSQGSRTTGSSSTSASATLPHSANYSPLAEGISQCGLNSPPSIKSGQVVYGDARSMGRSCDPSDSSRRFSALSPSDTLNVSSTRGINPVIGSNDVFSTMPFADSIAIAERIDSSPTLTSGEPILCDDLQWEEPDLSCLAPFVDTYDMMQMDEGLPPELQALYDLPDFTPAVPQAPAARPVHIDRSPPAKRMHQSGPSDLDFMYTQHYQPFQQDETYWQGQQQQNEQQPSSYSPFPMLS
